Part of at least one peptide drawing is inferred or uncertain, most often the ends. Peptide text beside a SMILES is read from it. * marks the point of attachment. pNA = O=[N+]([O-])c1ccc(N*)cc1
Key:
KLK4 [1] = biological target: T1, KLK4 (Homo sapiens, UniProt Q9Y5K2); assay: Chromogenic substrate screen (sparse matrix pNA library); format: biochemical; design: pro-region of PSA (KLK3), replacing the native KLK4 pro-region (only if the E. coli preparation was used) (N, cleaved yes); made in house; conditions: 12 μM substrate, 405 nm
KLK4 [2] = biological target: T1, KLK4; assay: Inhibitor kinetics: KLK4 amidolytic activity with peptide-pNA substrates; format: biochemical; design: pro-region of PSA (KLK3), replacing the native KLK4 pro-region (N, cleaved yes); made in house; conditions: peptide aldehydes
Method: Human recombinant KLK4 was expressed in E. coli using a previously described chimeric KLK4 plasmid construct where the native pro-region was replaced with the pro-region of PSA, enabling autoactivation. Protein was expressed as inclusion bodies which were isolated and solubilised as described previously to yield 90% pure KLK4. Protein refolding was performed by dilution into 100 volumes of refolding buffer I (2 M urea, 0.1M NaCl, 5 mM GSH, 0.5 mM GSSG, 10 mM benzamidine, 50 mM tris HCl pH 8.0, 2 mM CaCl2) over 44 hours before further dilution into 3 volumes refolding buffer II (refolding buffer I with 0.5 M urea 0.5 mM GSH, 0.05 mM GSSG, 2 mM CaCl2) over another 24 hours. Dialysis was performed as previously described (with additional 2 mM CaCl2 to reduce aggregation) before concentration using UNO sphere Q (Biorad) eluting with tris buffered saline (pH 7.5)/2 mM CaCl2. […]
All enzymes and substrates were obtained from Sigma Chemicals if not otherwise specified. […] The release of pNa moiety was monitored as described above for 7 minutes with each point being the average of three independent triplicate reactions. IC50 was determined using the Prism 5 software suite (GraphPad software Inc.).

Chains of the proteins cited; added tags and fusions are not shown. Residues count along the entry.
UniProt Q9Y5K2, 31-254: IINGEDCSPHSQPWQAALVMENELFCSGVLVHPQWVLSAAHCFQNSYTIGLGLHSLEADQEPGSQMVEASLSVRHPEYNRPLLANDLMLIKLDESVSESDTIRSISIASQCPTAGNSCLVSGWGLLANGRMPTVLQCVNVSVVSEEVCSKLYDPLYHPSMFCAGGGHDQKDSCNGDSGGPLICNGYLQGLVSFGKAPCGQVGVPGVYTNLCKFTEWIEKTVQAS

Structure (SMILES) | rate of hydrolysis relative to library average (KLK4 [1]) | IC50 (KLK4 [2])
CC(C)[C@H](NC(=O)[C@@H](N)Cc1ccccc1)C(=O)N[C@@H](CCC(N)=O)C(=O)N[C@@H](CCCNC(=N)N)C(=O)Nc1ccc([N+](=O)[O-])cc1 [FVQR-pNA] (H-FVQR-pNA) | 6.7 times average rate | –
CC[C@H](C)[C@H](N)C(=O)N[C@H](C(=O)N[C@@H](CCC(N)=O)C(=O)N[C@@H](CCCNC(=N)N)C(=O)Nc1ccc([N+](=O)[O-])cc1)C(C)C [IVQR-pNA] (H-IVQR-pNA) | 4.3 times average rate | –
CC[C@H](C)[C@H](N)C(=O)N[C@H](C(=O)N[C@@H](CCC(N)=O)C(=O)N[C@H](C=O)CCCNC(=N)N)C(C)C [IVQR] (H-IVQR-aldehyde; N-terminus assumed) | – | 103 ± 2.8 µM
CC(C)[C@H](NC(=O)[C@@H](N)Cc1ccccc1)C(=O)N[C@@H](CCC(N)=O)C(=O)N[C@H](C=O)CCCNC(=N)N [FVQR aldehyde] (H-FVQR-aldehyde; N-terminus assumed) | – | 10.8 ± 1.3 µM
